Measurements: patent US7611852B2, “Functional cardiomyocytes from human embryonic stem cells” (Wisconsin Alumni Research Foundation, priority 2002, dated 2009)

System: embryonic ventricular-like cardiomyocytes
Conditions: CMs treated with E-4031; never observed in the absence of E-4031

Q: `Cc1cccc(CCN2CCC(C(=O)c3ccc(NS(C)(=O)=O)cc3)CC2)n1` [E-4031] was tested. Which “EADs (early afterdepolarizations) observed, fraction of cells” value did it give?
A: ⅗
